Reference: PubChem BioAssay AID1259254 (NCATS, 2017)
The deposit covers about 59,000 reagents; shown is an unselected part. About 1,550 of all reagents (2.6%) count as active. 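G2 share is only a proxy for re-replication; each gene was hit by three separate siRNAs, and active genes were retested.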 Reagents against one gene are numbered here. Further read-outs or replicates are left out here. Not stated in the record: the amount of reagent.

- Assay: 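Gene knock-downs that lead to re-replication, shown by excess G2 DNA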 (primary screen)
- Cell system: human HCT116 colorectal cancer cells
- Reagent: single siRNA against human genes
- Time to read-out: 3 days
- Measurement: 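Imaged Hoechst DNA stain sorts each cell into a cycle phase by DNA amount; per plate, G2 fraction set to 0% for non-targeting and 100% for GMNN siRNA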
- Reading the numbers: G2 robust z-score: higher = more G2 cells, more excess DNA replication
- Rule for the call: 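Active siRNAs have a G2 robust z of 5 or more median absolute deviations over the median, which in these data means about 38% or higher of GMNN control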

Gene | reagent | G2 robust z-score | Outcome
SAYSD1 (GeneID 55776) | 1 | 0.535 | inactive
SAYSD1 (GeneID 55776) | 2 | 0.231 | inactive
SAYSD1 (GeneID 55776) | 3 | -0.388 | inactive
DBF4P1 (GeneID 645084) | 1 | 0.297 | inactive
DBF4P1 (GeneID 645084) | 2 | 1.07 | inactive
DBF4P1 (GeneID 645084) | 3 | 1.1 | inactive
ZNF804B (GeneID 219578) | 1 | -0.806 | inactive
ZNF804B (GeneID 219578) | 2 | -0.854 | inactive
ZNF804B (GeneID 219578) | 3 | -0.56 | inactive
KCNA6 (GeneID 3742) | 1 | 1.42 | inactive
KCNA6 (GeneID 3742) | 2 | 3.13 | inactive
KCNA6 (GeneID 3742) | 3 | -0.0491 | inactive
RFT1 (GeneID 91869) | 1 | -0.0108 | inactive
RFT1 (GeneID 91869) | 2 | -0.35 | inactive
RFT1 (GeneID 91869) | 3 | 2.34 | inactive
KCNG3 (GeneID 170850) | 1 | -1.29 | inactive
KCNG3 (GeneID 170850) | 2 | 2.03 | inactive
KCNG3 (GeneID 170850) | 3 | 0.331 | inactive
FUNDC2 (GeneID 65991) | 1 | -0.61 | inactive
FUNDC2 (GeneID 65991) | 2 | 1.05 | inactive
FUNDC2 (GeneID 65991) | 3 | 2.02 | inactive
ZNF775 (GeneID 285971) | 1 | -0.38 | inactive
ZNF775 (GeneID 285971) | 2 | 1.39 | inactive
ZNF775 (GeneID 285971) | 3 | -0.219 | inactive
IGF2BP1 (GeneID 10642) | 1 | -1.27 | inactive
IGF2BP1 (GeneID 10642) | 2 | 0.0265 | inactive
IGF2BP1 (GeneID 10642) | 3 | 0.86 | inactive
RTCB (GeneID 51493) | 1 | -1.68 | inactive
RTCB (GeneID 51493) | 2 | -0.903 | inactive
RTCB (GeneID 51493) | 3 | 0.601 | inactive
PLA2G1B (GeneID 5319) | 1 | -0.285 | inactive
PLA2G1B (GeneID 5319) | 2 | 0.212 | inactive
PLA2G1B (GeneID 5319) | 3 | 2.12 | inactive
FLNB (GeneID 2317) | 1 | -0.712 | inactive
FLNB (GeneID 2317) | 2 | 0.449 | inactive
FLNB (GeneID 2317) | 3 | -0.522 | inactive
MMACHC (GeneID 25974) | 1 | -0.827 | inactive
MMACHC (GeneID 25974) | 2 | -0.119 | inactive
MMACHC (GeneID 25974) | 3 | 0.316 | inactive
GOLGA2P10 (GeneID 80154) | 1 | -0.33 | inactive
GOLGA2P10 (GeneID 80154) | 2 | -1.09 | inactive
GOLGA2P10 (GeneID 80154) | 3 | -0.375 | inactive
ENOPH1 (GeneID 58478) | 1 | 0.677 | inactive
ENOPH1 (GeneID 58478) | 2 | -0.731 | inactive
ENOPH1 (GeneID 58478) | 3 | -0.901 | inactive
ME1 (GeneID 4199) | 1 | -0.757 | inactive
ME1 (GeneID 4199) | 2 | 0.384 | inactive
ME1 (GeneID 4199) | 3 | 0.808 | inactive
DNAJC2 (GeneID 27000) | 1 | 0.107 | inactive
DNAJC2 (GeneID 27000) | 2 | -0.18 | inactive
DNAJC2 (GeneID 27000) | 3 | -0.882 | inactive
LNX2 (GeneID 222484) | 1 | 0.249 | inactive
LNX2 (GeneID 222484) | 2 | -0.359 | inactive
LNX2 (GeneID 222484) | 3 | -0.154 | inactive
BTD (GeneID 686) | 1 | 2.22 | inactive
BTD (GeneID 686) | 2 | 0.531 | inactive
BTD (GeneID 686) | 3 | 1.95 | inactive
GPRASP2 (GeneID 114928) | 1 | 1.43 | inactive
GPRASP2 (GeneID 114928) | 2 | 0.58 | inactive
GPRASP2 (GeneID 114928) | 3 | 0.535 | inactive
POMK (GeneID 84197) | 1 | 2.69 | inactive
POMK (GeneID 84197) | 2 | -0.261 | inactive
POMK (GeneID 84197) | 3 | 1.82 | inactive
PPM1B (GeneID 5495) | 1 | 7.38 | active
PPM1B (GeneID 5495) | 2 | -1.42 | inactive
PPM1B (GeneID 5495) | 3 | -0.557 | inactive
PHC1P1 (GeneID 653441) | 1 | -0.328 | inactive
PHC1P1 (GeneID 653441) | 2 | 4.22 | inactive
PHC1P1 (GeneID 653441) | 3 | -0.207 | inactive

Ordered by “G2 robust z-score” (high to low): some entries from above
Gene | reagent | G2 robust z-score | Outcome
RTCB (GeneID 51493) | 3 | 0.601 | inactive
PLA2G1B (GeneID 5319) | 2 | 0.212 | inactive
PLA2G1B (GeneID 5319) | 1 | -0.285 | inactive
RTCB (GeneID 51493) | 2 | -0.903 | inactive
